Assay results from US11465978B2, “Anthranilic amides and the use thereof” (THE ADMINISTRATORS OF THE TULANE EDUCATIONAL FUND, priority 2013, dated 2022).
At least one read-out could not be matched to a standard name with certainty.

System: pERK5
Assay: Western blot, inhibition of EGF-mediated formation of pERK5 in MDA-MB-231 cells
Assay type: cell-based
Settings: Table 1; MDA-MB-231, compounds 10 μM 30 min, then EGF 50 ng/mL 15 min
Procedure: FIG. 9 is a set of bar graphs showing a Western blot analysis of potential MEK5 inhibitors. The MDA-MB-231 triple negative breast cancer cell line was pretreated with compounds (10 μM) for 30 minutes followed by stimulation with epidermal growth factor (EGF, 50 ng/mL) for 15 minutes. Vehicle-treated cells were pretreated with DMSO for 30 minutes prior to EGF stimulation for 15 minutes. Protein visualization and quantification analysis were performed using LI-COR Odyssey Imager. * P<0.05 vs. Vehicle, one-way ANOVA followed by Tukey-Kramer test (n=3).
A number of compounds were tested for their potential as MEK5 inhibitors. The MDA-MB-231 triple negative breast cancer cell line was pretreated with 10 μM of compounds 24, 9b, 9a, 9c, 9e, 9f, 9d, 9h, 23, 7, and 15 for 30 minutes followed by stimulation with epidermal growth factor (EGF, 50 ng/mL) for 15 minutes. […] Protein visualization and quantification analysis was performed using LI-COR Odyssey Imager. […]
Total protein content was assessed by Bradford Bio-Rad protein assay (Cat. No. 500-0006, Bio-Rad, Hercules, Calif.) and 30 μg of protein was loaded on a 8% SDS-PAGE gel for phosphorylated and total ERK1/2 and ERK5 proteins. […] After washing the membranes with 1×PBS-T, the protein bands were visualized on an Odyssey Infrared Imager and quantified with Odyssey software (LICOR Biosciences).

In the case of `NC(=O)c1ccc(F)c(F)c1Nc1ccc(I)cc1F` [Compound 3, 3,4-difluoro-2-((2-fluoro-4-iodophenyl)amino)benzamide], the “cellular pERK5 decrease (%)” value is reported as 48.4%.
